PMC6899017
These are yes or no findings as the source states them, for the method shown. Binding can be weak; no strength is given. Tags and fused reporters may be left off the sequences shown.

Chains of the proteins cited; added tags and fusions are not shown. Lines headed by an entry give the natural chain unless they say otherwise; changes in a name come on top.
UniProt P14904: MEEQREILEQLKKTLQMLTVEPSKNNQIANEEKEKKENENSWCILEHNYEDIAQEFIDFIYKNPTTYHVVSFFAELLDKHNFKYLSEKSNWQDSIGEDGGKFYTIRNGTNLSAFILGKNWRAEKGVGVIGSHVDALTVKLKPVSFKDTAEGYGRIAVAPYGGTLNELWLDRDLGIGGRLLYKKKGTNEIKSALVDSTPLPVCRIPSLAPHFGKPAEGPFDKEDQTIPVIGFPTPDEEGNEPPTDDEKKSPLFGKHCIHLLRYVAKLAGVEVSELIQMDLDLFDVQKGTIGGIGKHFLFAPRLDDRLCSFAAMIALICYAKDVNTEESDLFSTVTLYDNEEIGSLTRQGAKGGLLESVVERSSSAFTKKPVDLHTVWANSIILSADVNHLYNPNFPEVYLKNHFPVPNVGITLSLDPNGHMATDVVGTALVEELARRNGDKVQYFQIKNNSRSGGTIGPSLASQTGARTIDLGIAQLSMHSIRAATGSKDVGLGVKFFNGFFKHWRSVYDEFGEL

Target: BFP–Ape1 (S. cerevisiae) (UniProt P14904)
Test: ectopic recruitment to Ape1 oligomers (live-cell fluorescence microscopy); atg19Δvac8Δ cells with BFP–Ape1 and t-Vac8ΔN–GFP on plasmids; 1 h starvation in SD-N; GFP signal read against mTagBFP2–Ape1 puncta; punctum lost in ape1Δ cells

- binding: binds
B1: t-Vac8ΔN–GFP [Atg19(152-191)–Vac8(19-578)–GFP] (protein, UniProt P35193 152-191; P39968 19-578)
chain: NVVVSRECLDNFMKQLLKLEESLNKLELEQKVTNKEPNHRPIADNEREAVTLLLGYLEDKDQLDFYSGGPLKALTTLVYSDNLNLQRSAALAFAEITEKYVRQVSREVLEPILILLQSQDPQIQVAACAALGNLAVNNENKLLIVEMGGLEPLINQMMGDNVEVQCNAVGCITNLATRDDNKHKIATSGALIPLTKLAKSKHIRVQRNATGALLNMTHSEENRKELVNAGAVPVLVSLLSSTDPDVQYYCTTALSNIAVDEANRKKLAQTEPRLVSKLVSLMDSPSSRVKCQATLALRNLASDTSYQLEIVRAGGLPHLVKLIQSDSIPLVLASVACIRNISIHPLNEGLIVDAGFLKPLVRLLDYKDSEEIQCHAVSTLRNLAASSEKNRKEFFESGAVEKCKELALDSPVSVQSEISACFAILALADVSKLDLLEANILDALIPMTFSQNQEVSGNAAAALANLCSRVNNYTKIIEAWDRPNEGIRGFLIRFLKSDYATFEHIALWTILQLLESHNDKVEDLVKNDDDIINGVRKMADVTFERLQRSGIDVKNPGSNNNPSSNDNNSNNNDTGSEHQPVEDASLELYNITQQILQFLH
